PubChem BioAssay AID720505, Drosophila RNAi Screening Center | 2013

Purpose: 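Fly regulators or components of the CRAC channel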 (primary screen)
Cell system: Drosophila S2R+ cells
Reagent: long dsRNA against Drosophila genes
Treatment: thapsigargin (2 µM) in calcium-free buffer to empty internal stores, then 2 mM calcium added back
Read-out: 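Fluo-4 signal in 384-well plates read on a FLIPR after thapsigargin (2 µM, calcium-free) store depletion and 2 mM calcium add-back; unnormalised mean endpoint per well; screen run twice, selected wells retested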
Scale: calcium signal and retest calcium signal: higher = more calcium entry after store depletion
Call rule: 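About 1500 genes called as lowering calcium entry, by varying amounts, judged against per-plate control wells with STIM1 as positive and Rho1 as negative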
Meaning of the calls: active = called as lowering calcium entry; inactive = not called
In all, the deposit lists about 20,000 reagents; below is an unselected part of those with a known target gene and a result. Of all reagents, about 2,100 (10%) are marked active. 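Raw plate signals without normalisation; calls rest on control-based scores that were not deposited; replicate 2 separates called from uncalled poorly.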 Names joined by + are all predicted targets of the reagent. The record does not give: the amount of reagent, the time to read-out.

target | dsRNA | calcium signal, replicate 1 | calcium signal, replicate 2 | retest calcium signal, replicate 1 | retest calcium signal, replicate 2 | Outcome
Obp50a (Odorant-binding protein 50a) | DRSC22152 | 89.7 | 175 | – | – | inactive
RpS19b (Ribosomal protein S19b) | DRSC15773 | 127 | 88.5 | – | – | inactive
CG42713 | DRSC01050 | 125 | 90.5 | – | – | inactive
Polr2K (RNA polymerase II, I and III subunit K) | DRSC05535 | 82.8 | 104 | – | – | inactive
THG (tRNA-histidine guanylyltransferase) | DRSC01896 | 99 | 85.5 | – | – | inactive
CG6661 + asRNA:CR42871 | DRSC10687 | 80.6 | 68.1 | – | – | inactive
Dfd (Deformed) | DRSC12593 | 94.8 | 154 | – | – | inactive
spz5 (spatzle 5) | DRSC08645 | 50.7 | 152 | – | – | active
CG12868 | DRSC06207 | 139 | 131 | – | – | inactive
CG10405 | DRSC14238 | 98.1 | 144 | – | – | inactive
Prps (Phosphoribosyl pyrophosphate synthetase) | DRSC10707 | 55.5 | 109 | – | – | active
Prps (Phosphoribosyl pyrophosphate synthetase) | DRSC10708 | 116 | 81.3 | – | – | inactive
CG1663 | DRSC06613 | 110 | 159 | – | – | inactive
CG1663 | DRSC22488 | 112 | 182 | – | – | inactive
cerv (cervantes) | DRSC19681 | 70.2 | 131 | – | – | active
CG15498 | DRSC15040 | 160 | 129 | – | – | inactive
CG30479 | DRSC06735 | 154 | 192 | – | – | inactive
Dtg (Dpp target gene) | DRSC15998 | 116 | 128 | – | – | inactive
Eip63F-1 (Ecdysone-induced protein 63F 1) | DRSC08659 | 78.2 | 120 | – | – | inactive
CG31482 | DRSC12582 | 88.3 | 105 | – | – | inactive
Tsf2 (Transferrin 2) | DRSC09751 | 96 | 111 | – | – | inactive
Syn1 (Syntrophin-like 1) | DRSC11803 | 117 | 168 | – | – | inactive
Syn1 (Syntrophin-like 1) | DRSC11804 | 89 | 139 | – | – | inactive
Ubc4 (Ubiquitin conjugating enzyme 4) | DRSC11312 | 105 | 95.7 | – | – | inactive
RapGAP1 (Rap GTPase activating protein 1) | DRSC02293 | 52.6 | 141 | 76.8 | 94.8 | active
RapGAP1 (Rap GTPase activating protein 1) | DRSC02294 | 58.5 | 149 | – | – | active
RapGAP1 (Rap GTPase activating protein 1) | DRSC02295 | 50.6 | 154 | – | – | active
RapGAP1 (Rap GTPase activating protein 1) | DRSC03406 | 125 | 257 | – | – | inactive
Ns2 (Nucleostemin 2) | DRSC06993 | 96.4 | 85.7 | – | – | inactive
mus301 (mutagen-sensitive 301) | DRSC10939 | 66.7 | 54.5 | – | – | active
CG12689 | DRSC17879 | 64.6 | 266 | – | – | active
Ugt303A1 (UDP-glycosyltransferase family 303 member A1) | DRSC15641 | 86.2 | 72.8 | – | – | inactive
CG17598 | DRSC20636 | 170 | 117 | – | – | inactive
CG13983 | DRSC02315 | 195 | 101 | – | – | inactive
BOD1 (Biorientation Defective 1) | DRSC15824 | 114 | 169 | – | – | inactive
Mis12 | DRSC10299 | 97.3 | 55.7 | – | – | inactive
Alp7 (Alkaline phosphatase 7) | DRSC04355 | 51.3 | 176 | – | – | inactive
Drsl1 (Drosomycin-like 1) | DRSC22490 | 105 | 164 | – | – | inactive
NimB2 (Nimrod B2) | DRSC22645 | 115 | 150 | – | – | inactive
l(2)dtl (lethal-(2)-denticleless) | DRSC04697 | 66.9 | 117 | – | – | active
mRpL1 (mitochondrial ribosomal protein L1) | DRSC16251 | 127 | 132 | – | – | inactive
CG13795 | DRSC02299 | 54.6 | 109 | – | – | active
CG30423 | DRSC04013 | 69.6 | 74 | – | – | active
CG14662 + asRNA:CR43478 | DRSC12248 | 108 | 104 | – | – | inactive
Mon1 (Monensin sensitivity 1) | DRSC00336 | 114 | 87.7 | – | – | inactive
CG34227 | DRSC06788 | 83.2 | 122 | – | – | inactive
CG34227 | DRSC07034 | 97.5 | 112 | – | – | inactive
Arp3 (Actin-related protein 3) | DRSC09669 | 114 | 102 | – | – | inactive
msopa (male-specific opa containing gene) | DRSC11895 | 90.9 | 148 | – | – | inactive
msopa (male-specific opa containing gene) | DRSC23240 | 88.5 | 171 | – | – | inactive
Muc96D (Mucin 96D) | DRSC13709 | 7158 | 173 | – | – | inactive
Muc96D (Mucin 96D) | DRSC21609 | 159 | 95.1 | – | – | inactive
Muc96D (Mucin 96D) | DRSC23213 | 122 | 155 | – | – | inactive
CG17221 | DRSC00487 | 97.4 | 78.9 | – | – | inactive
CG7506 | DRSC10860 | 90.3 | 128 | – | – | inactive
CG7133 | DRSC11798 | 112 | 132 | – | – | inactive
CG7300 | DRSC03044 | 68.4 | 101 | – | – | active
pum (pumilio) | DRSC17037 | 78.9 | 183 | 7279 | 131 | inactive
pum (pumilio) | DRSC17038 | 87.4 | 173 | – | – | inactive
pum (pumilio) | DRSC22758 | 135 | 191 | – | – | inactive
pum (pumilio) | DRSC22794 | 78.6 | 86.6 | – | – | inactive
Pak (p21-activated kinase) | DRSC12602 | 110 | 149 | – | – | inactive
Pak (p21-activated kinase) | DRSC23302 | 131 | 167 | – | – | inactive
CG4995 | DRSC02801 | 98.5 | 114 | – | – | inactive
Ir25a (Ionotropic receptor 25a) | DRSC00462 | 189 | 123 | – | – | inactive
yellow-d2 | DRSC04591 | 78.7 | 98.8 | – | – | inactive
CG11241 | DRSC11641 | 130 | 94.9 | 169 | 122 | inactive
CG11241 | DRSC22165 | 140 | 204 | – | – | inactive
CG9168 | DRSC08633 | 126 | 143 | – | – | inactive
CG31798 | DRSC01702 | 142 | 120 | – | – | inactive
CG13898 | DRSC08368 | 81.1 | 108 | – | – | inactive
Nup58 (Nucleoporin 58kD) | DRSC16235 | 172 | 186 | – | – | inactive
vir (virilizer) | DRSC04377 | 73 | 164 | – | – | inactive
CG9757 | DRSC16557 | 121 | 244 | – | – | inactive
CG9757 | DRSC21707 | 151 | 104 | – | – | inactive
CG3483 | DRSC04371 | 185 | 98.3 | – | – | inactive
Clk (Clock) | DRSC11117 | 73.6 | 78.7 | – | – | inactive
TTLL3B (Tubulin tyrosine ligase-like 3B) | DRSC02133 | 181 | 145 | – | – | inactive
Or83c (Odorant receptor 83c) | DRSC12359 | 86.8 | 150 | – | – | inactive
CG3776 | DRSC04417 | 123 | 101 | – | – | inactive
CR31427 (pseudo) | DRSC22675 | 80 | 101 | – | – | inactive
CG12480 | DRSC19460 | 98.5 | 130 | 6767 | 98.9 | inactive
rpr (reaper) | DRSC11390 | 97.9 | 173 | – | – | inactive
